Assay results: PMC10599732
Results are given in words; binding and its absence hold for the method and conditions named. In cells and extracts the contact can be indirect. A yes stands for co-enrichment or nearness to the bait. Other partners may have been found.

Amino acid sequences for entries named in this document (tags omitted).
UniProt P09936: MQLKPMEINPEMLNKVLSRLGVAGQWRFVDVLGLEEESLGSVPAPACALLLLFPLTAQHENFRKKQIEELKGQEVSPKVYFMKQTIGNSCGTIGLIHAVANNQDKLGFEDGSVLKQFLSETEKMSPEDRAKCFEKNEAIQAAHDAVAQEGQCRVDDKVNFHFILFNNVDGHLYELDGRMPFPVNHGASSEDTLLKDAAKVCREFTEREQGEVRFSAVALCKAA
UniProt P14618: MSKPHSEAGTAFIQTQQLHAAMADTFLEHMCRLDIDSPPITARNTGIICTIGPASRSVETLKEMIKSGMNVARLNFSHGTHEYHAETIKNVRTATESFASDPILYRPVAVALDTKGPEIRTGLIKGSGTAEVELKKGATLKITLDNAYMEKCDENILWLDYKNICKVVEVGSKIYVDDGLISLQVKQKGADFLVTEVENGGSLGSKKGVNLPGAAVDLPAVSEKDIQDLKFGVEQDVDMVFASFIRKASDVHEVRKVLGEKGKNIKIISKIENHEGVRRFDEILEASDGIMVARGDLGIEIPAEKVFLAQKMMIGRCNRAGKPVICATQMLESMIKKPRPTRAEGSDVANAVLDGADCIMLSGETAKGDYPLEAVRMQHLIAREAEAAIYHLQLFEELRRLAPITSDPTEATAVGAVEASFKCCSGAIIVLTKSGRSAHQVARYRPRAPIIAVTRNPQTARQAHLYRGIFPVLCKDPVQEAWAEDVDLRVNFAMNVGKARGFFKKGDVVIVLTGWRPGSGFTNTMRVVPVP

Molecular target: Ubiquitin Carboxy-Terminal Hydrolase L1 (human (endogenous in T24 and J82)) (UniProt P09936)
Assay: affinity purification with mass spectrometry; anti-UCHL1 immunoprecipitate of UBC cell line lysate, Coomassie staining and MS (text: GST pull-down assay followed by IP-MS)

- binding: binds
Substance: Pyruvate kinase M2 (from UniProt P14618 1-531) (enzyme)
